Data as given in patent US6984404B1, “Methods for preparing coated drug particles and pharmaceutical formulations thereof” (University of Florida Research Foundation, Inc., priority 1998, dated 2006).
Read-outs that look alike come from different tables or passages of the source. For some assays here: At least one read-out could not be matched to a standard name with certainty. For some assays here: At least one compound was matched to its structure with a doubt left.

Key:
[1] = cited from earlier work
[2] = In vitro dissolution of coated vs. uncoated drug powders in pH 7.4 PBS; assay type: physicochemical; details: pH 7.4 PBS (50 mM, 0.5% SDS), 37 C, n=3
[3] = biological target: T1, glucocorticoid receptor (GR) (Homo sapiens, UniProt P04150); details: cited from earlier work
T1 sequence (P04150 1-777): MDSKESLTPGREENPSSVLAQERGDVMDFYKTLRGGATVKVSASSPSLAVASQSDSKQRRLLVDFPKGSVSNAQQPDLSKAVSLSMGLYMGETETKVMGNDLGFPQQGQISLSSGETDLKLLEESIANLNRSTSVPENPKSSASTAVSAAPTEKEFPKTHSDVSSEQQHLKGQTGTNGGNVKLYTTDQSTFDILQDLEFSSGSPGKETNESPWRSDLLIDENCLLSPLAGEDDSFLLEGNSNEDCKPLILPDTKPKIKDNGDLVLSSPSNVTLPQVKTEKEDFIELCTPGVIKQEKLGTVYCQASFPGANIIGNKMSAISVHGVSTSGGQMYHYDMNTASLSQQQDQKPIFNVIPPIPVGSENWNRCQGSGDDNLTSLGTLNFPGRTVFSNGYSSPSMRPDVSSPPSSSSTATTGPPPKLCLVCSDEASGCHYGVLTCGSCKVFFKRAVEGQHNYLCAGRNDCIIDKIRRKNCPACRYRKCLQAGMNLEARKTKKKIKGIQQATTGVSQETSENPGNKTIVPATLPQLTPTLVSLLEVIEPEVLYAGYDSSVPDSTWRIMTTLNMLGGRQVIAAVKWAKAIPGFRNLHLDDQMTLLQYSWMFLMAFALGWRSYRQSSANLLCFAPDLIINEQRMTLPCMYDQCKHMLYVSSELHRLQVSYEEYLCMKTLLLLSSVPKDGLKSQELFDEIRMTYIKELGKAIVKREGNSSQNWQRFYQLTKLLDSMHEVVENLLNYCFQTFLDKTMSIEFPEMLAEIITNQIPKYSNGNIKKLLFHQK

| SMILES | time of Cmax ([1]; after inhalation via MDI) | time of Cmax ([1]; after inhalation via Turbohaler) | time to reach 90% release [2] | receptor binding affinity (RBA) [3] |
| --- | --- | --- | --- | --- |
| CCCC1O[C@@H]2C[C@H]3[C@@H]4CCC5=CC(=O)C=C[C@]5(C)[C@H]4[C@@H](O)C[C@]3(C)[C@]2(C(=O)CO)O1 (some centres unmarked) [Budesonide, budesonide] | 0.5 h | 0.3 h | – | – |
| CC1(C)O[C@@H]2C[C@H]3[C@@H]4CCC5=CC(=O)C=C[C@]5(C)[C@@]4(F)[C@@H](O)C[C@]3(C)[C@]2(C(=O)CO)O1 [TA, triamcinolone acetonide] | – | – | approximately 2 hours | 361 |
| CO[C@H]1/C=C/O[C@@]2(C)Oc3c(C)c(O)c4c(O)c(c(/C=N/N5CCN(C)CC5)c(O)c4c3C2=O)NC(=O)/C(C)=C\C=C\[C@H](C)[C@H](O)[C@@H](C)[C@@H](O)[C@@H](C)[C@H](OC(C)=O)[C@@H]1C [uncoated RIF, rifampicin] | – | – | ≤ 15 min | – |
